Measurements reported in publication PMC11605229.

Protein sequences, listed by entry. Tags and fused reporters are not part of them. Residues count along the entry.
UniProt P11387: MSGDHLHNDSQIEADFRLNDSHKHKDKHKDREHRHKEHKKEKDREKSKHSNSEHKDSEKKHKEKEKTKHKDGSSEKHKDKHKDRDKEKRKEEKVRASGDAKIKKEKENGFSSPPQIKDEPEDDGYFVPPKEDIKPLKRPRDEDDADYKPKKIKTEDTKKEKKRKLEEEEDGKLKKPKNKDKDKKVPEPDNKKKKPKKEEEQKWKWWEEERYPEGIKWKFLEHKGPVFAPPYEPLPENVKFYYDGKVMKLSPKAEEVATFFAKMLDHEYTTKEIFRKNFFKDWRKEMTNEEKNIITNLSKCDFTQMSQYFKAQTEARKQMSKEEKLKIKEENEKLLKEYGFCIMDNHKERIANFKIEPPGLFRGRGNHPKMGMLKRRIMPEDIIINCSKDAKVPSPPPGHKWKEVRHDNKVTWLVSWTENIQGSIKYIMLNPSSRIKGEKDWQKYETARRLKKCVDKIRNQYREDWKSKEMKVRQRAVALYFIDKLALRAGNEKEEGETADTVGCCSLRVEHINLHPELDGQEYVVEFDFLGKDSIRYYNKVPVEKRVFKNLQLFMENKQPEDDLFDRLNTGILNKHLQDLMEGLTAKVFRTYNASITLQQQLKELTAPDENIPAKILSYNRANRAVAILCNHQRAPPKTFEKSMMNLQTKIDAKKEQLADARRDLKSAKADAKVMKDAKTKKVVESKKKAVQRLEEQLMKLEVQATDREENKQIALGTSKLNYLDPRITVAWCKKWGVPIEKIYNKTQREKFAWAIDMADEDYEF
UniProt Q01995: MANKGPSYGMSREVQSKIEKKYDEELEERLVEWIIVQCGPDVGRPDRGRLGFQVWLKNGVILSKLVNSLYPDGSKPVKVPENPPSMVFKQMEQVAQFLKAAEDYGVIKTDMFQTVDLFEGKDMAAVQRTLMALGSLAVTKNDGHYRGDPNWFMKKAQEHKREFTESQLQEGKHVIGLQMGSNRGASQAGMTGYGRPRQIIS
UniProt P19474: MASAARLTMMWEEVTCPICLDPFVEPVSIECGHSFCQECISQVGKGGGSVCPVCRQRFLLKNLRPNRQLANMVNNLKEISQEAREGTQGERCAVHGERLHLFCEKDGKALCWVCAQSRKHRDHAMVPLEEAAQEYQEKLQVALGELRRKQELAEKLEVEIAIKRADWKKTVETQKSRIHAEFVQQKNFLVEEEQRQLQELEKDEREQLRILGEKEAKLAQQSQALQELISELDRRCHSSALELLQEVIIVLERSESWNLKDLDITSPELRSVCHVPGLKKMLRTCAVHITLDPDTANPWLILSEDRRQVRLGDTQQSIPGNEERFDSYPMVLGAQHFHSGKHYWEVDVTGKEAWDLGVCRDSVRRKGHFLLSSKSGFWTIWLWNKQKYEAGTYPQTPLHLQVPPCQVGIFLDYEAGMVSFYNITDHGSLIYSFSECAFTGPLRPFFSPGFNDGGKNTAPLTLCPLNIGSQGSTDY
UniProt P35269: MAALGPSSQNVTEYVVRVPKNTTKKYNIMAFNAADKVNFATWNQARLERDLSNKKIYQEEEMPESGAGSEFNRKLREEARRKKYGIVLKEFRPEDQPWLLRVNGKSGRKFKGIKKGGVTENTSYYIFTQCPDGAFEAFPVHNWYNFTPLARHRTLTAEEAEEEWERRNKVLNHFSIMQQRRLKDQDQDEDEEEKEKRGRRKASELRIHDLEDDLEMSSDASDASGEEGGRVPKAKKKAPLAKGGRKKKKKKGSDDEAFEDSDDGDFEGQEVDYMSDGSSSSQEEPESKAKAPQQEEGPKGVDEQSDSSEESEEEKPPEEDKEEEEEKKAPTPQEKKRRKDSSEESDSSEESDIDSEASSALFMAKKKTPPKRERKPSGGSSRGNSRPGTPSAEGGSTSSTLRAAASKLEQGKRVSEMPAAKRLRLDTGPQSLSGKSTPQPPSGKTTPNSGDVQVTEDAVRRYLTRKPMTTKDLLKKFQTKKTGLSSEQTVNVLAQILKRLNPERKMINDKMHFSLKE
UniProt P49821, residues 21-464: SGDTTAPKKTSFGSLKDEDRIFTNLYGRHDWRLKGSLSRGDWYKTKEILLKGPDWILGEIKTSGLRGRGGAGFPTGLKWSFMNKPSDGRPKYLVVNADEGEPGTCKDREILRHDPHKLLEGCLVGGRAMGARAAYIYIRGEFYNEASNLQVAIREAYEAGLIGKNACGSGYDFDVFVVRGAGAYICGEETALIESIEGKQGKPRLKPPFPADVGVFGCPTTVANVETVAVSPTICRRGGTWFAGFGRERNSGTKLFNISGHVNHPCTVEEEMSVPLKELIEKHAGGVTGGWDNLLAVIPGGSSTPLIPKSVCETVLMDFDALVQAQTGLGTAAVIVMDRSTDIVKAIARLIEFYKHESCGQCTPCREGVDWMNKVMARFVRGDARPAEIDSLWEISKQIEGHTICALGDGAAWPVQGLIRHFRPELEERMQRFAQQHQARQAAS
UniProt Q07021, residues 74-282: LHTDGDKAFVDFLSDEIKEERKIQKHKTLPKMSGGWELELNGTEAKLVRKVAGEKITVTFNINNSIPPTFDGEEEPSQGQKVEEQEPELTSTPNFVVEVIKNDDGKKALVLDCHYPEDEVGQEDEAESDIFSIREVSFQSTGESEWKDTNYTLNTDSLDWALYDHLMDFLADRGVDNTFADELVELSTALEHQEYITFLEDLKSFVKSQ
UniProt Q9Y2I7: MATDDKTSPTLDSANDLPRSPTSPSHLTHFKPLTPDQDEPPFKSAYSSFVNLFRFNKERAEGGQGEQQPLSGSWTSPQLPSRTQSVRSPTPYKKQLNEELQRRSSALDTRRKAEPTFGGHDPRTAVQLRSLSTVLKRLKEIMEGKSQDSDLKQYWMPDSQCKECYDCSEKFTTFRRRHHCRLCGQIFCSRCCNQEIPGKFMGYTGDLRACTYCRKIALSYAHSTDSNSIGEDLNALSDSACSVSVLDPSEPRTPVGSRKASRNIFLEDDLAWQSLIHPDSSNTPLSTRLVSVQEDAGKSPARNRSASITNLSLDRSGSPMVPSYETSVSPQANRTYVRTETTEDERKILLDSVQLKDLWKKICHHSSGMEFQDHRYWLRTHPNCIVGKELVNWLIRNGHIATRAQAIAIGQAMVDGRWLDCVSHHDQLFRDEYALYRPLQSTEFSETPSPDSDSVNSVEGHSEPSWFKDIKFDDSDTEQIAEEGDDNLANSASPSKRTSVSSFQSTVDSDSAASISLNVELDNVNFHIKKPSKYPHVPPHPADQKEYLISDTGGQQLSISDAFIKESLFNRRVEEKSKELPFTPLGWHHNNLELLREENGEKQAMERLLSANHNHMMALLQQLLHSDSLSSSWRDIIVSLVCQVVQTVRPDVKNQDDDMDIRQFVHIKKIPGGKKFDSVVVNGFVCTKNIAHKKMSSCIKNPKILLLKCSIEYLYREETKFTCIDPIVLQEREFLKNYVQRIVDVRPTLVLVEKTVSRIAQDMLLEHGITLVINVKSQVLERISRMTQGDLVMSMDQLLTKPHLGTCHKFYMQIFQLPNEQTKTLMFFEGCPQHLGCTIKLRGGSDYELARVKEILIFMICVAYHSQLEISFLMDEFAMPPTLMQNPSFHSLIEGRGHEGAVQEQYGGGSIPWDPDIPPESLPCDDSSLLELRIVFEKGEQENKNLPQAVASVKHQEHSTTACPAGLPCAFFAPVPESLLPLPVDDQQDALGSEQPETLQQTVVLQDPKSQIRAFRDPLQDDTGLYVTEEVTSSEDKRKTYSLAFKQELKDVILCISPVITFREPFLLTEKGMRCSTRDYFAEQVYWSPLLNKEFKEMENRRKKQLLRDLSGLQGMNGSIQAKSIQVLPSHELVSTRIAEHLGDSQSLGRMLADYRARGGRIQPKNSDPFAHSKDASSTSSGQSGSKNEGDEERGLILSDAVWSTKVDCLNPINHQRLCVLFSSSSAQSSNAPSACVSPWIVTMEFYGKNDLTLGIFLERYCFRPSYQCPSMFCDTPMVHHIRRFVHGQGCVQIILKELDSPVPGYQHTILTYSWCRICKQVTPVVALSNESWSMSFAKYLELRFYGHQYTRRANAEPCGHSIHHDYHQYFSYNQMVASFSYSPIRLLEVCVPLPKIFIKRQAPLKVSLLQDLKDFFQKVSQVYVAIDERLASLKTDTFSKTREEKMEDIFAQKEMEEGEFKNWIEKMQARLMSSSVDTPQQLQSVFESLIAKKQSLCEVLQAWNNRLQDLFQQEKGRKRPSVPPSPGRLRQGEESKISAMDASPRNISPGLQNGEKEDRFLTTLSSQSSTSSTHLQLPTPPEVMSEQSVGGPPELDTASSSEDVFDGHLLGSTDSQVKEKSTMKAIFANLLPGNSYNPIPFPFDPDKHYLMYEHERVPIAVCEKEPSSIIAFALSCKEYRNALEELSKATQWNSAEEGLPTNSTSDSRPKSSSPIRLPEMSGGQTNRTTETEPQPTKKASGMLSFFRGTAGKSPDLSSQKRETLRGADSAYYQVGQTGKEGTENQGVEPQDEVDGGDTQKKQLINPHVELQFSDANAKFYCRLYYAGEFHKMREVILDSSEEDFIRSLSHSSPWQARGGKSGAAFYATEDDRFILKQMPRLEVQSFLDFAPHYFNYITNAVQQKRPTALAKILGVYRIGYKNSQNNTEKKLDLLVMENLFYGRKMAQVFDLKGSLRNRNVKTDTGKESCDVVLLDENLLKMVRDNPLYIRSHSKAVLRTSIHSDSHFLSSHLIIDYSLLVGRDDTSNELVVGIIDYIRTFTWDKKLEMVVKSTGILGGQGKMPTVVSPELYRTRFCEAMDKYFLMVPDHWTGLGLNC
UniProt P49321: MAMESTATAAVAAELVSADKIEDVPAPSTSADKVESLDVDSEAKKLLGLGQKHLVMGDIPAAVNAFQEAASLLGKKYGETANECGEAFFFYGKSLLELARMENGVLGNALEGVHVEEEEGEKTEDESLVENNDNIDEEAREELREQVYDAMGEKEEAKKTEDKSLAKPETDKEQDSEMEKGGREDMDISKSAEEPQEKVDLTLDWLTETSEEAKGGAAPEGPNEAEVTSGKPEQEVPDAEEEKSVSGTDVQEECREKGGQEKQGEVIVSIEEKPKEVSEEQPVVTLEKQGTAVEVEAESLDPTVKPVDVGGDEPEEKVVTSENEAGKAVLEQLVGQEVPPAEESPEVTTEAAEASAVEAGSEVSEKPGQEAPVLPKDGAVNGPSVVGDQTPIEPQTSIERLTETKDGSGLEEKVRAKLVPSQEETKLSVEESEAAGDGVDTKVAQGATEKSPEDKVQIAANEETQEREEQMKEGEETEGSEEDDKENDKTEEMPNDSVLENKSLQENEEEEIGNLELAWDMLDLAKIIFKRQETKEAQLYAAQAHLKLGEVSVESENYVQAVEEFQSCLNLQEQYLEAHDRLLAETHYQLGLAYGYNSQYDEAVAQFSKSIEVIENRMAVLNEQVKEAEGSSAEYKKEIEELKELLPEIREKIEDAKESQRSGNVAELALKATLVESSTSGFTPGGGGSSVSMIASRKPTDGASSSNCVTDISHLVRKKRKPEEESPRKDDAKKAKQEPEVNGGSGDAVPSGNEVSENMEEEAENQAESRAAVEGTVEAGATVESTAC
UniProt O43676: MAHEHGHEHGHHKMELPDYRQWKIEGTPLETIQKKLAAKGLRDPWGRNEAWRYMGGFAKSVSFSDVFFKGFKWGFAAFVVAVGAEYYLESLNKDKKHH
UniProt P35637: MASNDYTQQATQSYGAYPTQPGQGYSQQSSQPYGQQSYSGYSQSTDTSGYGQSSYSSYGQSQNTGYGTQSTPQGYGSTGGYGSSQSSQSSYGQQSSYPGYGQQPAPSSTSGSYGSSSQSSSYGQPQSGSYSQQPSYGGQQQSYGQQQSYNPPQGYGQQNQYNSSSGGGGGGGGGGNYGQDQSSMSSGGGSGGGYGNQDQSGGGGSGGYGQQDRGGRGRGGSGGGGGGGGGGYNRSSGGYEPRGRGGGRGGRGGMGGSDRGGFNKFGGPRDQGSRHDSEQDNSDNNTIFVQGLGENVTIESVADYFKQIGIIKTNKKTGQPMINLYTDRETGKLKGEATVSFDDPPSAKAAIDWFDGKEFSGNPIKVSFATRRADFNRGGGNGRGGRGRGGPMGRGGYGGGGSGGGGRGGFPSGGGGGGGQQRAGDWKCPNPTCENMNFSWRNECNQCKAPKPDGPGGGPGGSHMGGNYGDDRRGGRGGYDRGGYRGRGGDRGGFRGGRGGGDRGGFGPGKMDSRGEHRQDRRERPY
UniProt Q13185: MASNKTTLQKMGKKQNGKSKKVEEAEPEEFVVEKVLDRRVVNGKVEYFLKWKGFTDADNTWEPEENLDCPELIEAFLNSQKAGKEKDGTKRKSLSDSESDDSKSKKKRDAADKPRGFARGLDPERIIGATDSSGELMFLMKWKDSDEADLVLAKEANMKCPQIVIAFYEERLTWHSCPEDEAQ
UniProt Q99612: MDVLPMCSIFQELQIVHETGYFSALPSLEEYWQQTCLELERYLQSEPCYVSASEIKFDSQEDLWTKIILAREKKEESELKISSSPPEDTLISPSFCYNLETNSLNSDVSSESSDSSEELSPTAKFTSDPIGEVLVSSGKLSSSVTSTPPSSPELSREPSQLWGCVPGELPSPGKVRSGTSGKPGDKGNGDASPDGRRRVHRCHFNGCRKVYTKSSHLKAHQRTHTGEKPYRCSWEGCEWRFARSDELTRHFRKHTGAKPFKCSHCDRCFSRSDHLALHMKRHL

The substances below were run against BioID-BAG3 (UniProt O95817) (assay: proximity labelling; BioID in human AC16 cardiomyocyte cells: transfected with plasmid expressing BioID-BAG3 for 48 h, biotin for 16 h; LC-MS/MS; BAG3_Biotin vs. BioID vector only, adjusted p < 0.05; effect sizes corrected for biotin alone and for BAG3 over-expression; three replicates).

Substance | binding
NAGK (from UniProt Q9UJ70 1-344) | binds
TOP1 (from UniProt P11387 1-765) | binds
TAGLN (from UniProt Q01995 1-201) | binds
SIPA1L1 (from UniProt O43166 1-1804) | binds
PWP1 (from UniProt Q13610 1-501) | binds
IFIH1 (from UniProt Q9BYX4 1-1025) | binds
STMN1 (from UniProt P16949 1-149) | binds
REV3L (from UniProt O60673 1-3130) | binds
ATXN1 (from UniProt P54253 1-815) | binds
SGK1 (from UniProt O00141 1-431) | binds
TRIM21 (from UniProt P19474 1-475) | binds
PSIP1 (from UniProt O75475 1-530) | binds
ANXA5 (from UniProt P08758 1-320) | binds
RFC3 (from UniProt P40938 1-356) | binds
NADH dehydrogenase 1 beta subcomplex subunit 6 (from UniProt O95139 1-128) | binds
GTF2F1 (from UniProt P35269 1-517) | binds
CFL1 (from UniProt P23528 1-166) | binds
PEBP1 (from UniProt P30086 1-187) | binds
PHLDA1 (from UniProt Q8WV24 1-401) | binds
LIMA1 (from UniProt Q9UHB6 1-759) | binds
GLO1 (from UniProt Q04760 1-184) | binds
RFC2 (from UniProt P35250 1-354) | binds
SPTAN1 (from UniProt Q13813 1-2472) | binds
TP53 (from UniProt P04637 1-393) | binds
ATP6V1D (from UniProt Q9Y5K8 1-247) | binds
NUP153 (from UniProt P49790 1-1475) | binds
NADH dehydrogenase flavoprotein 1, mitochondrial (from UniProt P49821 21-464) | binds

Substance | binding
complement component 1 Q subcomponent-binding protein, mitochondrial (from UniProt Q07021 74-282) | binds
CAPZB (from UniProt P47756 1-272) | binds
ARFGAP3 (from UniProt Q9NP61 1-516) | binds
EIF4A3 (from UniProt P38919 1-411) | binds
PIKFYVE (from UniProt Q9Y2I7 1-2098) | binds
PDLIM1 (from UniProt O00151 1-329) | binds
CASP1 (from UniProt P29466 1-404) | binds
DCP2 (from UniProt Q8IU60 1-420) | binds
PSMC2 (from UniProt P35998 1-433) | binds
PPARD (from UniProt Q03181 1-441) | binds
SVIL (from UniProt O95425 1-2214) | binds
DBT (from UniProt P11182 62-482) | binds
NASP (from UniProt P49321 1-788) | binds
CDC5L (from UniProt Q99459 1-802) | binds
EPB41L2 (from UniProt O43491 1-1005) | binds
NADH dehydrogenase 1 beta subcomplex subunit 3 (from UniProt O43676 1-98) | binds
FUS (from UniProt P35637 1-526) | binds
heat shock 70 kDa protein 6 (from UniProt P17066 1-643) | binds
PHF3 (from UniProt Q92576 1-2039) | binds
Bcl-2-associated transcription factor 1 (from UniProt Q9NYF8 1-920) | binds
ENAH (from UniProt Q8N8S7 1-591) | binds
CBX5 (from UniProt P45973 1-191) | binds
CBX3 (from UniProt Q13185 1-183) | binds
EIF5 (from UniProt P55010 1-431) | binds
KLF6 (from UniProt Q99612 1-283) | binds
TPX2 (from UniProt Q9ULW0 1-747) | binds
PCM1 (from UniProt Q15154 1-2024) | binds

These are yes or no findings as the source states them, for the method shown. In cells and extracts the contact can be indirect. These calls come from enrichment with a bait or labelling near it, and not all partners need be listed.
